Among all 1,800 compounds or so, about 710 (39%) were called active. The shares of active, inactive and inconclusive entries below differ from those in the screen.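 The calls were made as follows: active = luciferase signal rise whose fitted curve crosses a set activity limit at or below the top valid tested dose; inconclusive = flat fit with 30 to 70% rise, or poor fit; inactive = signal falling, flat within 30%, or crossing above top dose.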
Assay: luciferase activators in glycosylation-insensitive reporter cells, dose response, counter-screen for N-linked glycosylation inhibitor project, D54 LucT cells, luminescence, cherry pick (AID 624404);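 also: 0% = median neutral control signal and 100% = twice that signal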
Settings: D54 LucT luciferase reporter counterscreen, 24 h; at 19.5 µM (top of the series) unless noted

Row | Compound | activity increase (luciferase signal)
1 | COC(=O)c1cc(=O)n(Cc2ccc3c(c2)OCO3)c(=Nc2ccc(F)c(Cl)c2)s1 | inactive: -55.3%
2 | Cc1cccn2c(=O)c3cc(C(=O)NC4CCCC4)n(C)c3nc12 | inactive: 32.5%
3 | NC(=O)c1ccc(NC(=O)CN2C(=O)NC(c3ccccc3)(c3ccccc3)C2=O)cc1 | inconclusive: 50.4%
4 | O=C(CCl)N1CCCC1c1ccc2c(c1)OCCO2 (stereo not drawn) | inactive: -11.8%
5 | CCCCCCC(=O)N(O)C1CC(=O)N(c2ccc(Br)cc2)C1=O (stereo not drawn) | inconclusive: 63%
6 | CCN(CC)CCCNc1ccc2ncn3c4ccc(O)cc4c(=O)c1c23 | inactive: -16.4%
7 | O=C(/C=C/c1cn(-c2ccccc2)nc1-c1cccnc1)c1ccco1 | inconclusive: 78.4%
8 | C=CCN(CC=C)C(=O)CN1C(=O)NC(C)(c2ccc3cc(OC)ccc3c2)C1=O (stereo not drawn) | inactive: -2.95%
9 | Cc1ccc(C(=O)N2C(CC(=O)Nc3ccc(Cl)cc3)C(=O)NC3CCCCC32)cc1 (stereo not drawn) | inconclusive: 46.4%
10 | COC(=O)c1ccc(C(=O)NC2CCCc3c2cnn3-c2ccccc2F)nc1 (stereo not drawn) | inconclusive: 43.4%
11 | CC=Cc1cc2c(c(=O)o1)C(=O)C(O)C(C)O2 (stereo not drawn) | inactive: 40.1%
12 | COc1ccc(C)cc1NC(=O)CCCNC(=O)Cn1cnc2sc(C)c(C)c2c1=O | inconclusive: 11.1%
13 | CC(C)OCC(O)CN1CCN(CCN2C(=O)c3cccc4cccc(c34)C2=O)CC1 (stereo not drawn) | inconclusive: 27.9%
14 | CN(/N=C/c1ccc(N(C)C)cc1)C1=NS(=O)(=O)c2ccccc21 | inconclusive: 55.8%
15 | Cc1ccc(C(=O)/C=C/c2ccc(Br)cc2)o1 | inconclusive: 53.2%
16 | Cc1ccc(C(=O)Nc2ccc(NC(=O)c3cccs3)cc2)c(C)c1 | inconclusive: 42.5%
17 | COc1ccc(NC(=O)c2cccc3c(-c4ccc(O)c(OC)c4)coc23)cc1 | inconclusive: 135%
18 | Cc1cccc2sc(NC(=O)c3cc(S(=O)(=O)N(C)C)ccc3N3CCCC3)nc12 | inconclusive: 12.4%
19 | COc1ccc(NC(=O)C(=O)NCCC2CCCCN2S(=O)(=O)c2ccccc2)cc1 (stereo not drawn) | inconclusive: 69.3%
20 | CC1=CC(C)[C@H](/C=N/n2c(=O)[nH]c3c([nH]c4ccc(C)cc43)c2=O)C(C)C1 (stereo partly drawn) | inconclusive: 43.6%
21 | O=C(Nc1ccc(N2CCCC2)c(Cl)c1)c1ccc([N+](=O)[O-])o1 | inactive: 27.7%
22 | Cc1cc(/C=C2\Sc3ccccc3N2C)cc(C)[n+]1CC1CCCO1 (stereo not drawn) | inactive: -30.6%
23 | Cc1ccc(-c2nn3c(C)nnc3c3ccccc23)cc1S(=O)(=O)NC(C)(C)CO | inconclusive: 53.9%

Entries 7–8 of the list above:
Row | Compound | activity increase (luciferase signal)
7 | O=C(/C=C/c1cn(-c2ccccc2)nc1-c1cccnc1)c1ccco1 | inconclusive: 78.4%
8 | C=CCN(CC=C)C(=O)CN1C(=O)NC(C)(c2ccc3cc(OC)ccc3c2)C1=O (stereo not drawn) | inactive: -2.95%
